Like-named read-outs stand apart in the source and are kept apart here. Results are given in words; binding and its absence hold for the method and conditions named. For some assays here: Binding seen in cells or lysates may run through a third protein. Some binding calls cover weakened binding; strength is not graded here. For some assays here: Where a sequence is shown, tags or fusion partners need not be part of it.

Protein sequences, listed by entry. Tags and fused reporters are not part of them.
UniProt Q80U70: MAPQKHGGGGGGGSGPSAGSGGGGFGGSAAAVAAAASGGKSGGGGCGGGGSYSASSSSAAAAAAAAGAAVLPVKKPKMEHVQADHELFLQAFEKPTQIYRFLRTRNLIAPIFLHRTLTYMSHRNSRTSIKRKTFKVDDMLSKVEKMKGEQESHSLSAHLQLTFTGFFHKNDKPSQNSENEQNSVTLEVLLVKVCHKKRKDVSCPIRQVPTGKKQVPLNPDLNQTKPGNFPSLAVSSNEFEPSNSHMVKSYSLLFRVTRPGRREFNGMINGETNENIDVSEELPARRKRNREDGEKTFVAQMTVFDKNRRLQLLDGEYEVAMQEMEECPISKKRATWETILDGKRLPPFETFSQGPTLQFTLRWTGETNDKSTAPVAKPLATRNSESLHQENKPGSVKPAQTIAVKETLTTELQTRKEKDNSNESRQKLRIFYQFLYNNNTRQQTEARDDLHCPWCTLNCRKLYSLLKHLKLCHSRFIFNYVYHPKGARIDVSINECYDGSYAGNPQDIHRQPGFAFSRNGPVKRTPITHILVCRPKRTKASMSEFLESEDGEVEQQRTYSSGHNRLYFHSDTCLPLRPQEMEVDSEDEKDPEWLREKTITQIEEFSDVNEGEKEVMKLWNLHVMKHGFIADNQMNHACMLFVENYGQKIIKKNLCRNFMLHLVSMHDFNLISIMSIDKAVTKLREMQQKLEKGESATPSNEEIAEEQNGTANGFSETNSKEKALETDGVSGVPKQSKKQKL
UniProt P97929: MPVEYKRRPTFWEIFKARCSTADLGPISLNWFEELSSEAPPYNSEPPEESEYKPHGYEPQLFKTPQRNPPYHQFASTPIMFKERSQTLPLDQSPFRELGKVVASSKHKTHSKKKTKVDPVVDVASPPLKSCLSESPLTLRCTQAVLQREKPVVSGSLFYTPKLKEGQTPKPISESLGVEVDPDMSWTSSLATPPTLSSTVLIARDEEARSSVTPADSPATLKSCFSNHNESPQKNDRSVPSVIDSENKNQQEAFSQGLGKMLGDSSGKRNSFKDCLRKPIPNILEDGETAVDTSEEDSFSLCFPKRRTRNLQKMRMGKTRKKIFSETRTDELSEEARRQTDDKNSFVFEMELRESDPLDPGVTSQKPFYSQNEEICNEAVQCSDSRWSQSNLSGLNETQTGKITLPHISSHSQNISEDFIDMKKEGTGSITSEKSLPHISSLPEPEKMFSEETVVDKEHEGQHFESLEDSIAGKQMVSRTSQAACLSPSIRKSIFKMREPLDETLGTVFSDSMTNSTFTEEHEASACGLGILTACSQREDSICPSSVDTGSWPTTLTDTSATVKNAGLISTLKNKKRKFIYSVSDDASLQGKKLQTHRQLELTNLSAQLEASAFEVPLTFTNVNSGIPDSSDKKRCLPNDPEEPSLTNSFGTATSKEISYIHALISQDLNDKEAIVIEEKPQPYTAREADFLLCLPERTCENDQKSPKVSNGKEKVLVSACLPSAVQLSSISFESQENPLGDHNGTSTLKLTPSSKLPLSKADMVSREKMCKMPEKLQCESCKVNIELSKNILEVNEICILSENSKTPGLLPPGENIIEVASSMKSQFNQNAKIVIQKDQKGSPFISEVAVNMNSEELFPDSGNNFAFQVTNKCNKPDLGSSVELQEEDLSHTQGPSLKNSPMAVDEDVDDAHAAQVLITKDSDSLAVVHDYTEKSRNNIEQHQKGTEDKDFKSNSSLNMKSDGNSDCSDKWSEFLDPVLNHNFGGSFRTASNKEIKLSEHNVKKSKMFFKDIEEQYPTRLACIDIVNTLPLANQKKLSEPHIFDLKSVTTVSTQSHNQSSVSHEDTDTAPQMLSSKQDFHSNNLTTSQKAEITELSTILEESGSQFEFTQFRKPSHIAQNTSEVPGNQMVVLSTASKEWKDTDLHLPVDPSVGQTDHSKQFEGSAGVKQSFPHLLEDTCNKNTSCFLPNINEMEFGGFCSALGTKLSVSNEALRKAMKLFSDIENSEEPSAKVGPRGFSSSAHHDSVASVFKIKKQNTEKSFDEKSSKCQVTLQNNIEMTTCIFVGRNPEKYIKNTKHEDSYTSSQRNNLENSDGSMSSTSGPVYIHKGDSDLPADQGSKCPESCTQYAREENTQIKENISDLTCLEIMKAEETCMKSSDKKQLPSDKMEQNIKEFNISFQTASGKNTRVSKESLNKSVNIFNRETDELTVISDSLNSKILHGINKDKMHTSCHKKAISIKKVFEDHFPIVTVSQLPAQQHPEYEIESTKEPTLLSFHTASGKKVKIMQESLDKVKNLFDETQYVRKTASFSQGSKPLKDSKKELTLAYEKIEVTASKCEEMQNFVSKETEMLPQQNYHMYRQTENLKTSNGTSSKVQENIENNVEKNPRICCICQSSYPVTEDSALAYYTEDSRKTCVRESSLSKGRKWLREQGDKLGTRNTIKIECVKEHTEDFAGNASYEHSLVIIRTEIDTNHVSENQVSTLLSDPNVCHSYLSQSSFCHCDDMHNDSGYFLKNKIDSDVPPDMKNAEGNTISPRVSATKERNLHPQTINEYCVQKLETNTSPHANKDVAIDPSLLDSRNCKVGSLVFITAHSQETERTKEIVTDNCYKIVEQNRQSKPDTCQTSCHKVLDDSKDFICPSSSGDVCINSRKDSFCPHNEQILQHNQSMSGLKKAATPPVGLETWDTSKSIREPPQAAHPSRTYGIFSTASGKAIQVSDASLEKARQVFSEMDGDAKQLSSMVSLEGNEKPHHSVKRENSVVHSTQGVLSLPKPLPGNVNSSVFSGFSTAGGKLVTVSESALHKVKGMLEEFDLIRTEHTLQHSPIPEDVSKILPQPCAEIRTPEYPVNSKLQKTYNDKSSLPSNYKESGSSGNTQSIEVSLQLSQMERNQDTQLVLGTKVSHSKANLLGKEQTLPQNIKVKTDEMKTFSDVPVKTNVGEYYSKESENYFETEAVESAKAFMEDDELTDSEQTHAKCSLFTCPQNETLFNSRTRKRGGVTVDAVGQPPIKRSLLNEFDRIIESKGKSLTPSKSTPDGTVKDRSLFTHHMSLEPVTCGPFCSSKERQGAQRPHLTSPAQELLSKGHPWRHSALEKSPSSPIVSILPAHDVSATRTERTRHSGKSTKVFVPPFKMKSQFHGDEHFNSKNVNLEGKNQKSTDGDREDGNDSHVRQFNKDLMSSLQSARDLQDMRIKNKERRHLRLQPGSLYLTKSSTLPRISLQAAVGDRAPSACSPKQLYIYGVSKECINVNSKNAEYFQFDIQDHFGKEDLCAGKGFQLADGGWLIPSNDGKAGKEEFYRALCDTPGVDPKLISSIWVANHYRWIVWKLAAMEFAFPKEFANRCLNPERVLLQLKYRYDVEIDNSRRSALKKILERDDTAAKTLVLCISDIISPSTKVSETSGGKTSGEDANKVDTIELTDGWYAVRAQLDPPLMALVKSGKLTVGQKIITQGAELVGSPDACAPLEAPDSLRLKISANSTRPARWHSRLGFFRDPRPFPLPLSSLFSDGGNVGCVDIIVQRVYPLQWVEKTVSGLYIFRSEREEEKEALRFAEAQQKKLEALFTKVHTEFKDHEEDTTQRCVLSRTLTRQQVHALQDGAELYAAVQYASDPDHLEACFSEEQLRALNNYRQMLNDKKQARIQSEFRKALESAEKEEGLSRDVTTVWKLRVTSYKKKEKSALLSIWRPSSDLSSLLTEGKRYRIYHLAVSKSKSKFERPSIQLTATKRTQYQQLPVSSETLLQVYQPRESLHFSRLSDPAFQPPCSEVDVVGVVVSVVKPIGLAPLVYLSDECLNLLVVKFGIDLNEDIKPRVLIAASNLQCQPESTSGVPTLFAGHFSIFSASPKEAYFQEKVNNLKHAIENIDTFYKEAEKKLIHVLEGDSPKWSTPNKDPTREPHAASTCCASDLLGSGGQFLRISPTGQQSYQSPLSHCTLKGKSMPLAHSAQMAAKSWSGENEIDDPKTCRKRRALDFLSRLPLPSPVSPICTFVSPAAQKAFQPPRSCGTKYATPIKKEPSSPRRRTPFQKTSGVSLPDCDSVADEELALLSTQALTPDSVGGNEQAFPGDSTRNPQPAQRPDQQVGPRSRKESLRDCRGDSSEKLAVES
UniProt A0A338P6K9: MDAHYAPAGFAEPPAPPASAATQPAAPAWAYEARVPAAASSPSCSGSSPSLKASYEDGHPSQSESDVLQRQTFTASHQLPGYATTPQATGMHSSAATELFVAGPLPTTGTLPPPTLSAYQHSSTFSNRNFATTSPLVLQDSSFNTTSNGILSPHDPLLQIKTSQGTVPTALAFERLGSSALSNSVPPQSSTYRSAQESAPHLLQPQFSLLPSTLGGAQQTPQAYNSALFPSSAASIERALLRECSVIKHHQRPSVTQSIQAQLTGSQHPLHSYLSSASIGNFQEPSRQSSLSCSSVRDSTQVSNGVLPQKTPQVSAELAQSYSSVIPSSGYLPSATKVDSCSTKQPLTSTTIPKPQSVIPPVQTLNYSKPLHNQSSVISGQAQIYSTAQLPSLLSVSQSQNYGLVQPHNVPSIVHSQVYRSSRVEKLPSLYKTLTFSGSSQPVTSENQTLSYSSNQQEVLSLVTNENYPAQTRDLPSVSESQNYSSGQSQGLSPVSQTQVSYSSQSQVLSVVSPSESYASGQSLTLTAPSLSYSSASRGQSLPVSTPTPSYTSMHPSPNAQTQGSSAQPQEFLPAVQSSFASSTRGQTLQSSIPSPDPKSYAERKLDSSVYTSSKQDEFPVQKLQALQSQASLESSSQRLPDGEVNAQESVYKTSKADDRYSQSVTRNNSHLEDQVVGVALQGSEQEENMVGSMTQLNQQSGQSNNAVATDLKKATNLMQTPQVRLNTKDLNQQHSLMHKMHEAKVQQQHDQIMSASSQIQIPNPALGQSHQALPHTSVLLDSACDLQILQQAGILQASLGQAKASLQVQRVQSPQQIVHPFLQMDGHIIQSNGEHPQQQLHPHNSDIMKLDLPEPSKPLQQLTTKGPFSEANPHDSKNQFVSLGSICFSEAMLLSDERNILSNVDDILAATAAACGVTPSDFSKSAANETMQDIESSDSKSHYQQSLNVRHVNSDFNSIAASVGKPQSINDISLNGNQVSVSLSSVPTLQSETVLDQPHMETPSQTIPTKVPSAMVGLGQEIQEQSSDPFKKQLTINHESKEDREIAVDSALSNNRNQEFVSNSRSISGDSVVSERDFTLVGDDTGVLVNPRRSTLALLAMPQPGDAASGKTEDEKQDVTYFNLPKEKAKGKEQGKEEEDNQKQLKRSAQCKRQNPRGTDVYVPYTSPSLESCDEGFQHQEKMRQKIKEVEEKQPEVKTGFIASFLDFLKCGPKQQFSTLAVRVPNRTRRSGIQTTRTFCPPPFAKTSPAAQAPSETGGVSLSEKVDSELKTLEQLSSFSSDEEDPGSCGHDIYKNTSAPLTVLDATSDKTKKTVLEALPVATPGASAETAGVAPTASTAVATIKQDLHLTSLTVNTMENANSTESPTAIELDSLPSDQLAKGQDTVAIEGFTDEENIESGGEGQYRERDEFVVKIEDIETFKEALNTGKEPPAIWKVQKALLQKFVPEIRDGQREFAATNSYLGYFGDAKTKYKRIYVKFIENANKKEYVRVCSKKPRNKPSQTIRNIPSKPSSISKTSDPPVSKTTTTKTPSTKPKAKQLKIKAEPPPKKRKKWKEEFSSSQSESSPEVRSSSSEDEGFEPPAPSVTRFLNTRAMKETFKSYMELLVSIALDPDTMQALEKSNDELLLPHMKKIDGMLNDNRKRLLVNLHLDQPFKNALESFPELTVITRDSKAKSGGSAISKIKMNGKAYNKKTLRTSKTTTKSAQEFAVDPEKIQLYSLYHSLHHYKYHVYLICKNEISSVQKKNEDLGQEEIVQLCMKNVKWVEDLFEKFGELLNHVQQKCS
UniProt P17918: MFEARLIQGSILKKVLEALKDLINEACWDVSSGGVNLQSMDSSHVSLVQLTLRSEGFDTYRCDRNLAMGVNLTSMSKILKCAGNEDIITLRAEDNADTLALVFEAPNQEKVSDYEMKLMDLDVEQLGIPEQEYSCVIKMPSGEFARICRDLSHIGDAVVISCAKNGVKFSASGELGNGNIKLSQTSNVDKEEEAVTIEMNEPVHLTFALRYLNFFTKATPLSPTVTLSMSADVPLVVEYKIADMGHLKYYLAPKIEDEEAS

For experiment [1], the target named is T1, ZFP281 (krüppel-like zinc finger transcription factor), endogenous in mouse ES cells (mouse (endogenous in mouse ES cells)) (UniProt Q99LI5).
T1 sequence: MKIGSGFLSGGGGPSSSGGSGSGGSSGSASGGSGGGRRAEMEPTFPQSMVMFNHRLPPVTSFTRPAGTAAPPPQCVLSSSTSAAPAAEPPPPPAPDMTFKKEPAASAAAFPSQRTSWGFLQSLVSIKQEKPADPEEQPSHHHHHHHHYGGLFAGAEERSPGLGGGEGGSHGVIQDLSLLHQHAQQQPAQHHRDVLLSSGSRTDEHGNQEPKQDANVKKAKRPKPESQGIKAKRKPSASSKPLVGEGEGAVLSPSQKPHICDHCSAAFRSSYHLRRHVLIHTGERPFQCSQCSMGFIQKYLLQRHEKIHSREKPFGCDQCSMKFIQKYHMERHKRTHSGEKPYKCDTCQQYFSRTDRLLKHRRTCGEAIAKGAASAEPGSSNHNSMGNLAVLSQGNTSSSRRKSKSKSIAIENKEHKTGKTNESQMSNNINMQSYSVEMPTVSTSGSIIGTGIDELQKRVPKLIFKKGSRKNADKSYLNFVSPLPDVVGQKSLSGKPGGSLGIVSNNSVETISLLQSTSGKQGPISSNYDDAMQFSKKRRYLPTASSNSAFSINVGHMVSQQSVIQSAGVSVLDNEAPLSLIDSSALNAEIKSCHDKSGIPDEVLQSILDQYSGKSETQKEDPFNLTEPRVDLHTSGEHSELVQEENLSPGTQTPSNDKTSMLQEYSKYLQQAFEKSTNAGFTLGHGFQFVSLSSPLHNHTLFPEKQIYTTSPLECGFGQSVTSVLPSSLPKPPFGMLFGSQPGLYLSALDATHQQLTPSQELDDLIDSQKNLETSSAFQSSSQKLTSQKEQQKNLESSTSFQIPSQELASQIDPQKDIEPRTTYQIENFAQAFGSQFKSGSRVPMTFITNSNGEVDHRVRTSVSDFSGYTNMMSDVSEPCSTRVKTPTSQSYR
Kind of experiment: co-IP; endogenous proteins; cells lysed at 420 mM NaCl, brought to 300 mM NaCl, antibodies and protein A beads overnight at 4 °C, western blot; mouse ES cell lysates (named for Fig. 4b); WT and ZFP281 KO cells in Fig. 5i. For orientation: Immunoblotting shows a protein as a band on a membrane.

Experiment [2] addresses SUZ12, core component of PRC2, endogenous (UniProt Q80U70). The experiment is described as above.
For experiment [3], the target named is T1, ZFP281 (krüppel-like zinc finger transcription factor), endogenous in mouse ES cells (mouse (endogenous in mouse ES cells)). Kind of experiment: SEC; mouse ES cell nuclear extract on Superose 6 increase 3.2/300, 40 mM HEPES pH 7.5, 350 mM NaCl, 10% glycerol, 0.1% Tween-20; fractions by western blot. Background: In gel filtration, larger molecules generally elute earlier.

Experiment [4] has as its target T2, FLAG-tagged full length ZFP281 (UniProt Q99LI5).
T2 sequence: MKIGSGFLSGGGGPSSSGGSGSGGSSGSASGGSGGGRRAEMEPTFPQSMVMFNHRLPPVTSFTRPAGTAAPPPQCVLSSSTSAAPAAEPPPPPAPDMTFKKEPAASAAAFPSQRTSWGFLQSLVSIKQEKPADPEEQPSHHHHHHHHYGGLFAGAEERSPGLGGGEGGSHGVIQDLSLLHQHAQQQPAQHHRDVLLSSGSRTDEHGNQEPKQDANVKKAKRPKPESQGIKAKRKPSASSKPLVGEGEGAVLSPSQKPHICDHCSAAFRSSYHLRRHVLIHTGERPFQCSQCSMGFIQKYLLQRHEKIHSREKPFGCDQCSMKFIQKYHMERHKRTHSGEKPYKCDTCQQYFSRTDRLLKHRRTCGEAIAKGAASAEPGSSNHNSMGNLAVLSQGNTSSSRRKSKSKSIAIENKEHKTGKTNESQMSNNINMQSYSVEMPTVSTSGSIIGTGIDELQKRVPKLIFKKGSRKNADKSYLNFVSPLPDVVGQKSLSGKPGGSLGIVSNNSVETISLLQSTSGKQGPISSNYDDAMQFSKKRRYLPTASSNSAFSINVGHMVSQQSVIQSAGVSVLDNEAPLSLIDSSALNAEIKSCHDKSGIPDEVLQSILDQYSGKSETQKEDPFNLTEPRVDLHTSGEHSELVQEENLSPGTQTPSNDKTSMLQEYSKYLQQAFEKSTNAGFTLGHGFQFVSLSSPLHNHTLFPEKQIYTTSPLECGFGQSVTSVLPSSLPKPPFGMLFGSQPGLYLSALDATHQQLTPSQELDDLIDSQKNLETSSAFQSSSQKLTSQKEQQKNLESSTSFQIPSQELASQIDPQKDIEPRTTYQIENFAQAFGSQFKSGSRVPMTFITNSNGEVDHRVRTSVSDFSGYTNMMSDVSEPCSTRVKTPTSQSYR
Kind of experiment: co-IP; N-terminally FLAG-tagged ZFP281 (full length, truncated) or BRCA2 truncated proteins expressed in 293 T cells for 48 hrs; ANTI-FLAG M2 affinity gel, western blot.

Experiment [5] concerns the target BRCA2, endogenous in mouse ES cells (mouse (endogenous in mouse ES cells)) (UniProt P97929). Kind of experiment: co-IP; endogenous proteins; cells lysed at 420 mM NaCl, brought to 300 mM NaCl, antibodies and protein A beads overnight at 4 °C, western blot; mouse ES cell lysates (named for Fig. 4b); WT and ZFP281 KO cells in Fig. 5i.
In experiment [6] the target is T3, EMSY, endogenous in mouse ES cells (mouse (endogenous in mouse ES cells)) (UniProt Q8BMB0).
T3 sequence: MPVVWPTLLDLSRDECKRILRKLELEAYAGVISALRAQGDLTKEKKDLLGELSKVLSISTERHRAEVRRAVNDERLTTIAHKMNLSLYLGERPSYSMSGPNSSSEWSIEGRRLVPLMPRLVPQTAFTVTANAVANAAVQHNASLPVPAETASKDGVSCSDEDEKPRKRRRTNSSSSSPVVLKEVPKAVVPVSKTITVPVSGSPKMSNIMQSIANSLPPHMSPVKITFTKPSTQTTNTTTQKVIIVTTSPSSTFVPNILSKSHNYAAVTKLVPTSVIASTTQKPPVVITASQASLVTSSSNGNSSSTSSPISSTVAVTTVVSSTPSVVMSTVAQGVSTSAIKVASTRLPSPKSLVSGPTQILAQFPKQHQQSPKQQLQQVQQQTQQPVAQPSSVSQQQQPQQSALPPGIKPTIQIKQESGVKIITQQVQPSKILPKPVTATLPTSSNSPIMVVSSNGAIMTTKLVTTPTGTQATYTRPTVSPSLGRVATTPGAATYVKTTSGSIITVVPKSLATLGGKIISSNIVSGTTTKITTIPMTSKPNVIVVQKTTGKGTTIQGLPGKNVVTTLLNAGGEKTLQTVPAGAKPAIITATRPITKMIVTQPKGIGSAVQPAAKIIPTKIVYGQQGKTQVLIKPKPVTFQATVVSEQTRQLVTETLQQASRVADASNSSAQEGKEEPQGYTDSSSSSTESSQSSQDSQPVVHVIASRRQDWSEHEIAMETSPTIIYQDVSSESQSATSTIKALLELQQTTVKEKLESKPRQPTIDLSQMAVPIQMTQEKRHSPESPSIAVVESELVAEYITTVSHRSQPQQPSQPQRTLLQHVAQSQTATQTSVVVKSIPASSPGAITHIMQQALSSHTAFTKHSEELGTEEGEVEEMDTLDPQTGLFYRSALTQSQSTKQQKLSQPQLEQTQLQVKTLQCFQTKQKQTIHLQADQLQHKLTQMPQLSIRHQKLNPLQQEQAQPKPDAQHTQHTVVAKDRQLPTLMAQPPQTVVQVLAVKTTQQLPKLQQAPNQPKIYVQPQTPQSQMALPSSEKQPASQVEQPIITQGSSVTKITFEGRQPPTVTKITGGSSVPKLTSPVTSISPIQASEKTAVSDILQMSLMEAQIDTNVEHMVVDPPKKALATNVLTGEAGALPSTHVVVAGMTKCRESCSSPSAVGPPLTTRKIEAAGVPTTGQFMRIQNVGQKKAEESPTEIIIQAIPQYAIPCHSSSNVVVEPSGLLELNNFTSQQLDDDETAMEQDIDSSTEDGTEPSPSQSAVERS
Described as above.

Experiment [7] deals with T1, ZFP281 (krüppel-like zinc finger transcription factor), endogenous in mouse ES cells (mouse (endogenous in mouse ES cells)). Kind of experiment: proximity ligation; Duolink In Situ PLA on fixed mouse ESCs with antibodies against ZFP281 and PCNA; cells treated with DMSO or APH (0.3 μM, 16 h).
Experiment [8] addresses SUZ12, core component of PRC2, endogenous (UniProt Q80U70). Kind of experiment: co-IP; endogenous proteins; cells lysed at 420 mM NaCl, brought to 300 mM NaCl, antibodies and protein A beads overnight at 4 °C, western blot; mouse ES cell lysates (named for Fig. 4b); WT and ZFP281 KO cells in Fig. 5i. This is another data set of the same source.
The target in experiment [9] is BRCA2, endogenous in mouse ES cells (mouse (endogenous in mouse ES cells)) (UniProt P97929). Described as above. The source holds these as a separate data set.
Experiment [10] addresses T1, ZFP281 (krüppel-like zinc finger transcription factor), endogenous in mouse ES cells (mouse (endogenous in mouse ES cells)). The description is as above. This is another data set of the same source.

As for “BRCA2, endogenous in mouse ES cells (from UniProt P97929 1-3329)”, the binding result in experiment [1], in experiment [2] and in experiment [3] was “binds” each time.

As to “QSER1 in 293 cells (from UniProt Q2KHR3 1-1735)”, the binding entry in experiment [4] is “binds”.

“QSER1, endogenous in mouse ES cells (from UniProt A0A338P6K9 1-1788)”: the binding entry in experiment [5], in experiment [1], in experiment [6] and in experiment [3] was “binds” throughout.

In the case of “proliferating cell nuclear antigen (PCNA), endogenous in mouse ES cells (from UniProt P17918 1-261)”, the binding entry in [1] and in [7] was “binds” each time.

B1: ZFP281 (krüppel-like zinc finger transcription factor), endogenous in mouse ES cells (protein, UniProt Q99LI5 1-893)
chain: MKIGSGFLSGGGGPSSSGGSGSGGSSGSASGGSGGGRRAEMEPTFPQSMVMFNHRLPPVTSFTRPAGTAAPPPQCVLSSSTSAAPAAEPPPPPAPDMTFKKEPAASAAAFPSQRTSWGFLQSLVSIKQEKPADPEEQPSHHHHHHHHYGGLFAGAEERSPGLGGGEGGSHGVIQDLSLLHQHAQQQPAQHHRDVLLSSGSRTDEHGNQEPKQDANVKKAKRPKPESQGIKAKRKPSASSKPLVGEGEGAVLSPSQKPHICDHCSAAFRSSYHLRRHVLIHTGERPFQCSQCSMGFIQKYLLQRHEKIHSREKPFGCDQCSMKFIQKYHMERHKRTHSGEKPYKCDTCQQYFSRTDRLLKHRRTCGEAIAKGAASAEPGSSNHNSMGNLAVLSQGNTSSSRRKSKSKSIAIENKEHKTGKTNESQMSNNINMQSYSVEMPTVSTSGSIIGTGIDELQKRVPKLIFKKGSRKNADKSYLNFVSPLPDVVGQKSLSGKPGGSLGIVSNNSVETISLLQSTSGKQGPISSNYDDAMQFSKKRRYLPTASSNSAFSINVGHMVSQQSVIQSAGVSVLDNEAPLSLIDSSALNAEIKSCHDKSGIPDEVLQSILDQYSGKSETQKEDPFNLTEPRVDLHTSGEHSELVQEENLSPGTQTPSNDKTSMLQEYSKYLQQAFEKSTNAGFTLGHGFQFVSLSSPLHNHTLFPEKQIYTTSPLECGFGQSVTSVLPSSLPKPPFGMLFGSQPGLYLSALDATHQQLTPSQELDDLIDSQKNLETSSAFQSSSQKLTSQKEQQKNLESSTSFQIPSQELASQIDPQKDIEPRTTYQIENFAQAFGSQFKSGSRVPMTFITNSNGEVDHRVRTSVSDFSGYTNMMSDVSEPCSTRVKTPTSQSYR
On to B1, for which the binding entry in experiment [8] is recorded as “binds”.

B2: EMSY, endogenous in mouse ES cells (protein, UniProt Q8BMB0 1-1264)
chain: MPVVWPTLLDLSRDECKRILRKLELEAYAGVISALRAQGDLTKEKKDLLGELSKVLSISTERHRAEVRRAVNDERLTTIAHKMNLSLYLGERPSYSMSGPNSSSEWSIEGRRLVPLMPRLVPQTAFTVTANAVANAAVQHNASLPVPAETASKDGVSCSDEDEKPRKRRRTNSSSSSPVVLKEVPKAVVPVSKTITVPVSGSPKMSNIMQSIANSLPPHMSPVKITFTKPSTQTTNTTTQKVIIVTTSPSSTFVPNILSKSHNYAAVTKLVPTSVIASTTQKPPVVITASQASLVTSSSNGNSSSTSSPISSTVAVTTVVSSTPSVVMSTVAQGVSTSAIKVASTRLPSPKSLVSGPTQILAQFPKQHQQSPKQQLQQVQQQTQQPVAQPSSVSQQQQPQQSALPPGIKPTIQIKQESGVKIITQQVQPSKILPKPVTATLPTSSNSPIMVVSSNGAIMTTKLVTTPTGTQATYTRPTVSPSLGRVATTPGAATYVKTTSGSIITVVPKSLATLGGKIISSNIVSGTTTKITTIPMTSKPNVIVVQKTTGKGTTIQGLPGKNVVTTLLNAGGEKTLQTVPAGAKPAIITATRPITKMIVTQPKGIGSAVQPAAKIIPTKIVYGQQGKTQVLIKPKPVTFQATVVSEQTRQLVTETLQQASRVADASNSSAQEGKEEPQGYTDSSSSSTESSQSSQDSQPVVHVIASRRQDWSEHEIAMETSPTIIYQDVSSESQSATSTIKALLELQQTTVKEKLESKPRQPTIDLSQMAVPIQMTQEKRHSPESPSIAVVESELVAEYITTVSHRSQPQQPSQPQRTLLQHVAQSQTATQTSVVVKSIPASSPGAITHIMQQALSSHTAFTKHSEELGTEEGEVEEMDTLDPQTGLFYRSALTQSQSTKQQKLSQPQLEQTQLQVKTLQCFQTKQKQTIHLQADQLQHKLTQMPQLSIRHQKLNPLQQEQAQPKPDAQHTQHTVVAKDRQLPTLMAQPPQTVVQVLAVKTTQQLPKLQQAPNQPKIYVQPQTPQSQMALPSSEKQPASQVEQPIITQGSSVTKITFEGRQPPTVTKITGGSSVPKLTSPVTSISPIQASEKTAVSDILQMSLMEAQIDTNVEHMVVDPPKKALATNVLTGEAGALPSTHVVVAGMTKCRESCSSPSAVGPPLTTRKIEAAGVPTTGQFMRIQNVGQKKAEESPTEIIIQAIPQYAIPCHSSSNVVVEPSGLLELNNFTSQQLDDDETAMEQDIDSSTEDGTEPSPSQSAVERS
In the case of B2, the binding result in experiment [9], in experiment [10] and in [3] was “binds” throughout.

The record behind these values is publication PMC9205938.
